# Data: ChEMBL document CHEMBL4296182, “CO-ADD screening of NIH NCI Diversity Set V”
# Some of the results follow. Potency and affinity values are given separately.
# System: Pseudomonas aeruginosa
# Settings: Concentration 20 uM; ASSAY_TEST Inhibition of Bacterial Growth; detection method Absorption (OD600); MEDIA CAMHB; plate type 384well; NBS; CORNING #3640; time 18 hr
row,Structure (SMILES),Inhibition
1,O=C1OC(Cc2ccccc2)C(c2ccccc2)C1=O (stereo not drawn),4.23%
2,Cc1nc2ccccc2c(N)c1-c1cc(C)c2c(C)nc3ccccc3c2n1,-5.19%
3,O=C(Nc1ccc(O)c(C(=O)O)c1)Oc1ccccc1,-10.73%
4,COc1cccc(-c2nnc(N)o2)c1,-0.55%
5,O=C(Nc1ccc2ccccc2c1)c1cccc(F)c1,7.7%
6,ON=C(NCc1ccccc1)c1ccccc1,-32.49%
7,Oc1ccccc1Nc1ccccn1,28.86%
8,Brc1ccc(-c2csc(Nc3nc(-c4ccc(Br)cc4)cs3)n2)cc1,21.13%
9,Cc1ccc(S(=O)(=O)NC(=O)Nc2nccs2)cc1,15.02%
10,c1ccc(-c2cc3ccccc3[nH]2)cc1 [2-PHENYL-1H-INDOLE],24.3%
11,CC1=CN2C(c3cccc([N+](=O)[O-])c3)=NON(c3ccc(C)cn3)C2C=C1 (stereo not drawn),31.3%
12,COc1ccc(C(=O)O)nc1C,17.11%
13,CSc1nc(O)c(Nc2cccc(Cl)c2)c(O)n1,1.8%
14,Cc1cc(NC(=O)c2ccccc2)nc(C)n1,21.03%
15,O=c1c(-c2ccc(O)cc2)coc2cc(O)cc(O)c12 [GENISTEIN],5.66%
16,NCCN1CCNCC1,11.73%
17,CN(C)S(=O)(=O)c1ccccc1N=C=S,12.6%
18,Cc1nc2ccccc2nc1N1CCCC1,2.53%
19,COc1cc(C(=O)OC(C)CN2CCOCC2)cc(OC)c1OC (stereo not drawn),21.56%
20,O=C(c1cccnc1)N1CCN(c2ccccc2Cl)CC1,27.14%
21,S=C1N(c2ccccc2)CN(C2CCCCC2)CN1c1ccccc1,-0.76%
22,N#CC1=CC2CN(Cc3ccccc3)C1C1C(=O)N(c3ccccc3)C(=O)C21 (stereo not drawn),-5.11%
23,CC(C)(C)N1CCC1CN (stereo not drawn),21.89%

row,Structure (SMILES),Inhibition
1,COc1ccc(NC(=O)c2cc3ccc4c5ccccc5[nH]c4c3cc2O)cc1,22.24%
2,C=CCSc1n[nH]c(-c2cccs2)n1,3.24%
3,c1ccc2c(c1)-c1cccc3cncc-2c13,-2.28%
4,OC(c1ccccc1)(c1ccccc1)c1nccn1-c1ccccc1,2.08%
5,Cc1c(Cc2ccccc2)[n+]([O-])c2ccccc2[n+]1[O-],14.84%
6,Cc1ccc(C)c(-n2c(-c3ccc(Br)cc3)cs/c2=N\C(=O)c2ccccc2F)c1,17.59%
7,C#CCOCC1CN(c2ccccc2)C(=O)O1 (stereo not drawn),0.87%
8,CC(=C/c1ccccc1)/C=C1/NC(=S)NC1=O,-5.16%
9,O=C1c2ccccc2C(=O)C1c1ccccn1,-12.18%
10,O=C1c2ccccc2C(=O)c2c1cccc2-n1nnc2ccccc21,12.91%
11,Cc1ccc(NC(=O)Nc2cccnc2)cc1NC(=O)Nc1cccnc1,27.19%
12,Cc1ccc(NC(=O)NNC(=O)CSC2CCc3ccccc32)c(C)c1 (stereo not drawn),16.22%
13,CC(=O)Nc1ccc(S(=O)(=O)N=S(C)C)cc1,4.98%
14,NC(=O)c1nnsc1-c1ccc(-c2snnc2C(N)=O)cc1,29.23%
15,CC(C)C(=O)Nc1cccnc1,13.23%
16,CC(=O)c1cc(O)c2ccccc2c1O,0.14%
17,COC(=O)Nc1csc2c1NC(=O)CCCC2,18.75%
18,Clc1ccc(Oc2nc3c(Cl)cccc3s2)cc1Cl,16.91%
19,CCc1ccc(CCN2C(=O)c3ccccc3C2=O)nc1,6.23%
20,C=C(C)CN1C(=O)C(C)S/C1=N/N=C1/SCC(=O)N1C (stereo not drawn),19.34%
21,CC(O)(c1ccccc1)C(c1ccccc1)C1CCCCN1 (stereo not drawn),-0.87%
22,O=C(Nc1cccc(-c2ccccc2)c1)N1CCN(C(=O)Nc2cccc(-c3ccccc3)c2)CC1,16.81%
23,CCOC(=O)/C=C/c1nc(O)c(C)c(C(=O)OCC)n1,7.14%

row,Structure (SMILES),Inhibition
1,O=c1[nH]cc(Cl)cc1Cl,23.82%
2,CN(C)/C=N/c1ccc(Cl)c(Cl)c1,-9.94%
3,CCOC(=O)Nc1ccc2nc(Sc3ccc(Cl)cc3)sc2c1,13.48%
4,CC(=O)CC[N+](C)(C)C.[I-],4.37%
5,COc1cc(C2NC(=O)C(C#N)=C(Nc3cccc(C)c3)S2)ccc1O (stereo not drawn),24.75%
6,Cc1ccc(Nc2ccc(N)cc2S(=O)(=O)O)cc1,0.58%
7,CC(=O)Nc1ccc(OC(=O)Oc2ccc(NC(C)=O)cc2)cc1,18.73%
8,CCCCCC(=O)N1CCCC1,4.13%
9,NNC(=O)Cc1cc(O)[nH]n1,7.46%
10,O=C(O)c1cc2ccccc2cc1Nc1ccccc1,-18.37%
11,CC(=O)NS(=O)(=O)c1ccc2sc(C)nc2c1,11.44%
12,CC(C)(NC(=O)c1cc(Cl)c2ccccc2c1O)C(=O)O,19.83%
13,Nc1ccc(-c2nc3nc(N)nc(N)c3nc2-c2ccc(N)cc2)cc1,2.51%
14,CC(C)(C)n1nc(C2CC2)cc1NC(=O)Nc1ccccc1,21.35%
15,O=C1/C(=C/c2ccc([N+](=O)[O-])cc2)CCc2ccccc21,15.35%
16,Oc1ncnc(CN2CCCCC2)c1O,13.07%
17,Brc1ccc(/N=N/c2ccc3ccccc3n2)cc1,-8.76%
18,CC1=C(C(N)=O)S(=O)(=O)c2ccccc21,17.62%
19,N[C@H](C(=O)O)[C@H]1ON=C(Cl)[C@@H]1O,6.12%
20,CC(=O)NC1=C/C(=C\[N+](=O)[O-])C=C1O,20.31%
21,COc1c(/C=N/NC(N)=O)c(OC)c(OC)c2c1CCO2,-6.5%
22,Nc1ccc(C(=O)C(=O)c2ccc(N)cc2)cc1,-28.14%
23,Cc1cc(C)n2c(C)nnc2c1,1.58%

# Seven compounds drawn at random from the list so far:
row,Structure (SMILES),Inhibition
2,CN(C)/C=N/c1ccc(Cl)c(Cl)c1,-9.94%
21,COc1c(/C=N/NC(N)=O)c(OC)c(OC)c2c1CCO2,-6.5%
19,N[C@H](C(=O)O)[C@H]1ON=C(Cl)[C@@H]1O,6.12%
11,CC(=O)NS(=O)(=O)c1ccc2sc(C)nc2c1,11.44%
14,CC(C)(C)n1nc(C2CC2)cc1NC(=O)Nc1ccccc1,21.35%
8,CCCCCC(=O)N1CCCC1,4.13%
20,CC(=O)NC1=C/C(=C\[N+](=O)[O-])C=C1O,20.31%

# The list goes on.

row,Structure (SMILES),Inhibition
1,Cc1ccc(NC(=O)Nc2nc3ccccc3s2)cc1NC(=O)Nc1nc2ccccc2s1,21.18%
2,O=C1OCC/C1=C\OCCCO/C=C1\CCOC1=O,-6.5%
3,COc1cc(-c2ccc(NC(=O)NC3CC3)c(OC)c2)ccc1NC(=O)NC1CC1,15.9%
4,O=C(Nc1ccc(Br)c2ccccc12)c1ccc2ccccc2c1O,-14.22%
5,COc1cccc(/C=C2\CCc3ccccc3C2=O)c1,19.09%
6,CC(=O)OCCN1c2ccccc2Sc2cnccc21,-7.06%
7,CCOC(=O)C1=C(N)N=C(N)C1=Nc1ccc(OC)cc1,4.79%
8,O=C(O)c1nc2nc(Cl)c(Cl)nc2[nH]1,2.18%
9,COC(=O)c1ccc(C(=O)OC)c(O)n1,4.03%
10,Cn1c(CO)cnc1-c1ccccc1,-17%
11,CC1(C)C2CCC(CN=C(N)CSS(=O)(=O)O)C1C2 (stereo not drawn),16.18%
12,COC(=O)CC1OCC=C2CN3CCC45C6=CC(=O)C(=O)C([N+](=O)[O-])=C6NC4C1C2CC35 (stereo not drawn),16.59%
13,COc1ccc2nc3cc(Cl)ccc3c(Nc3cc(C(C)C)c(O)cc3C)c2c1,26.8%
14,Nc1cc([N+](=O)[O-])ccc1Nc1ccc(O)cc1,-4.08%
15,Cc1cccn2c(S)nnc12,20.74%
16,CC(=O)C1C=CC(C)(C(=O)O)C2C=C(C)C(=O)C(C)(O)C12 (stereo not drawn),15.12%
17,Nc1ccc(/C=C/c2ccc3ncccc3c2)cc1,-0.74%
18,COc1c(O)ccc2c1CN1CCc3cc4c(cc3C1C2)OCO4 (stereo not drawn),19.08%
19,CCOC(=O)c1cnc(SCC)nc1O,4.33%
20,CCCCCCCCCCCCC(NC(C)=O)(C(=O)OCC)C(=O)OCC,27.59%
21,CCN(CC)CCNC(=O)C(Cl)=C1C(Cl)=C(Cl)C(Cl)=C1Cl,23.23%
22,C[C@@H]1C[C@H]2OC(=O)[C@@]3(C)CCC[C@@](C)([C@@H]23)[C@@]1(O)CCc1ccoc1,-7.18%
23,O=C(O)c1ccc(O)c(O)c1 [PROTOCATECHUIC ACID],13.68%

# Gathered by group: those above containing a cyano group (2)
row,Structure (SMILES),Inhibition
22,N#CC1=CC2CN(Cc3ccccc3)C1C1C(=O)N(c3ccccc3)C(=O)C21 (stereo not drawn),-5.11%
5,COc1cc(C2NC(=O)C(C#N)=C(Nc3cccc(C)c3)S2)ccc1O (stereo not drawn),24.75%

# The listing continues:

row,Structure (SMILES),Inhibition
1,O=C(O)/C=C/C(=O)N1Cc2cc3ccccc3nc2C1,-0.67%
2,CC(C)=C(c1ccc(Cl)cc1)c1c(N)ncnc1N,23.07%
3,NC(=O)c1ccc2c(c1)S(=O)(=O)c1ccccc1C2=O,11.35%
4,CC1=C(C#N)C(C)(C)C(C#N)=C(C)N1,9.31%
5,COC(=O)Cc1[nH]c(Cl)nc1C(N)=O,-7.94%
6,CCCCC[C@H](O)/C=C/[C@@H]1[C@@H](C/C=C\CCCC(=O)O)[C@@H](O)C[C@H]1O.NC(CO)(CO)CO [DINOPROST TROMETHAMINE],16.5%
7,COC(=O)c1cc(C)nc2c(C)cc3[nH]c4ccccc4c3c12,-10.39%
8,COc1cc2c(cc1OC)[N+]([O-])=C(c1ccccc1)C2=O,8.62%
9,Cn1cnc([N+](=O)[O-])c1Sc1nnc(-c2cccnc2)n1C,12.12%
10,COc1ccccc1N=NNc1ccccc1OC,12.97%
11,Cc1nc(NC(=N)N(C)C)nc(O)c1C,11.32%
12,CN1CCN(C(=O)/C=C/c2ccc([N+](=O)[O-])o2)CC1,-8.22%
13,COC(=O)C1(C)Cc2cc(OC(C)=O)c(OC(C)=O)cc2N1 (stereo not drawn),28.58%
14,N#C/C(=C\c1cccnc1)c1ccc(Br)cc1,-9.52%
15,CN(C)CC1C2CCC(C2)C1O (stereo not drawn),17.74%
16,CCCc1nc2c(=O)n(C)c(=O)n(C)c2[nH]1,11.73%
17,Clc1nc2nc3n(c2nc1Cl)CCC3,-0.45%
18,CSc1cccc(NC(=O)Nc2ccccc2C(N)=O)c1,29.8%
19,O=C1CCCC1C(=O)Nc1ccc2ccccc2c1 (stereo not drawn),-6.41%
20,CCOC(=O)/C=C/c1ccc(C(=O)OCC)[nH]1,5.49%
21,CC(C)(C)N=C(S)NC(C)(C)C,-0.2%
